The other results are listed elsewhere or left out. Shown are side measurements of this screen, not its main read-out; they come without a call. The list favours compounds with an active or inconclusive main result. Words in brackets tell the shape of the fitted curve; partial curves, single points and poor fits give uncertain potencies.
Assay: qHTS for identification of novel therapeutic agents for treatment of microphthalmiaassociated transcription factor (MiT) renal cell carcinoma (RCC) (AID 1963991)
Details: CellTiter-Glo, 48 h; for z-score: stronger effect = lower value
Method in brief: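 UOK109/UOK124/UOK145 (TFE3 fusions, three partners); 500 cells/well; MIPE v4.0, 1912 cpds, 11 conc.; 48 h, 37 C; CellTiter-Glo, 15 min RT; lum. Norm.: DMSO 100%, empty 0%.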

[1] = TFE3-RCC UOK109 viability, measured here: UOK109 Z-AUC
[2] = TFE3-RCC viability, measured here: UOK124 Z-AUC
[3] = TFE3-RCC viability, measured here: UOK124 cell viability
[4] = TFE3-RCC viability, measured here: UOK145 Z-AUC
[5] = TFE3-RCC viability, measured here: UOK145 cell viability

Compound | z-score [1] | z-score [2] | AC50 [3] | z-score [4] | AC50 [5]
COc1ccc(-c2oc3c(CC=C(C)C)c(OC4O[C@H](CO)[C@@H](O)[C@H](O)[C@@H]4O)cc(O)c3c(=O)c2OC2O[C@@H](C)[C@H](O)[C@@H](O)[C@@H]2O)cc1 (stereo not given in full) | 0.504 | 0.236 | 14.8 µM [falling, partial curve] | -0.238 | 20.9 µM [falling, partial curve]
COc1ccc2c(c1OC)C(=O)OC2[C@H]1c2c(cc3c(c2OC)OCO3)CCN1C (stereo not given in full) | -0.238 | 0.17 | 0.187 µM [falling, full curve] | -0.356 | 0.332 µM [falling, full curve]
CC(C=CC(=O)NO)=C[C@@H](C)C(=O)c1ccc(N(C)C)cc1 | -0.596 | -2.3 | 0.743 µM [falling, full curve] | -0.674 | 2.96 µM [falling, full curve]
C=C1C(=CC=C2CCC[C@]3(C)[C@@H]([C@H](C)CCCC(C)(C)O)CC[C@@H]23)C[C@@H](O)C[C@@H]1O | -0.597 | -1 | 10.5 µM [falling, partial curve] | 0.207 | 9.35 µM [falling, full curve]
CON(C)C(=O)N1N=C(c2cc(F)ccc2F)S[C@]1(CCCN)c1ccccc1 | -1.77 | -0.717 | 37.2 µM [falling, single point] | -1.91 | 26.4 µM [falling, single point]
COc1nccc(-c2c(-c3ccc(F)cc3)ncn2C2CCNCC2)n1 | -0.0714 | 0.243 | 4.69 µM [falling, partial curve, poor fit] | -0.0923 | 16.6 µM [falling, partial curve]

Source: PubChem BioAssay (NCATS)
